# Results taken from US20130261032A1, “ADDITIVE FOR SUBTERRANEAN TREATMENT” (SCHLUMBERGER TECHNOLOGY CORPORATION, priority 2012, published 2013).
# Test: clay suspension capability, clarity after centrifuging
# Conditions: 1 and 5 wt % bentonite, 10 minutes at 3000 rpm
row,SMILES,clay suspension after centrifuging
1,"[Cl-].[K+] [KCl, potassium chloride]",the clay settled rapidly
2,"C[N+](C)(C)C.[Cl-] [TMAC, tetra methyl ammonium chloride]",the clay settled rapidly
